Source: PubChem BioAssay AID540256 (National Center for Advancing Translational Sciences (NCATS), 2011)
Out of some 300,000 compounds screened, about 3,700 (1.2%) were called active. Inconclusive means that the source gave no clear call. Such entries were picked first, then a sample of the others. The call rests on the fitted dose curve; tested in HEK293 cells. Where the call is inconclusive, the potency comes from a doubtful curve fit.

Experiment: qHTS for Inhibitors of binding or entry into cells for Lassa Virus; further: nearly all actives have a fitted effect of over 50% in size
Conditions: Lassa virus pseudotype entry inhibition, cell reporter; series mostly up to 37.9 µM
Potency means the concentration at half of the fitted maximal effect.

SMILES | Potency
Cc1ccc(-c2nnc(SCC(=O)N/N=C/c3c(C)nn(-c4ccccc4)c3C)n2-c2ccccc2)cc1 | inconclusive: 14.1 µM [inhibitor, partial curve, poor fit]
O=c1oc2ccccc2cc1-c1csc(Nc2ccc(O)cc2)n1 | inconclusive: 11.2 µM [inhibitor, partial curve, poor fit]
O=C(N/N=C/c1cc(Br)ccc1O)C(=O)Nc1ccccc1OC(F)(F)C(F)F | inconclusive: 16.4 µM [inhibitor, partial curve, poor fit]
Cc1ccc(NC(=O)COc2coc(CN3CCc4ccccc43)cc2=O)cc1Cl | inconclusive: 5.62 µM [inhibitor, single point]
c1ccc(N2CCN(c3nc(NCc4ccco4)c4ccccc4n3)CC2)cc1 | inconclusive: 11.2 µM [inhibitor, partial curve, poor fit]
COc1ccc2c(c1)c(CC(=O)Nc1ccc(C(C)=O)cc1)c(C)n2C(=O)c1ccc(Cl)cc1 | inconclusive: 35.5 µM [inhibitor, partial curve, poor fit]
Cn1cccc1/C=C1\SC(=O)N(c2ccc(O)cc2)C1=O | inconclusive: 0.631 µM [inhibitor, partial curve, poor fit]
CCOc1ccc(S(=O)(=O)N2CCCCC2)cc1NC(=O)CN1C(=O)NC(C)(c2ccc(C)cc2)C1=O (stereo unspecified) | inconclusive: 2.82 µM [inhibitor, partial curve, poor fit]
CCN(CC)S(=O)(=O)c1cccc(C(=O)Nc2ccccc2)c1 | inconclusive: 32.6 µM [inhibitor, single point]
CSc1ccc(Cl)c(C(=O)NC2CCCC2)c1 | inactive
COc1ccccc1/C=N/Nc1nc(C)cc(C)n1 | inactive
Cc1ccc(N(Cc2ccccc2)C(=O)c2cc(S(=O)(=O)N3CCOCC3)ccc2Cl)cc1 | inconclusive: 10 µM [inhibitor, partial curve, poor fit]
Cc1ccc(N(C(=O)Cc2cccs2)C(C(=O)NC2CCCCC2)c2ccccn2)cc1C (stereo unspecified) | inconclusive: 35.5 µM [inhibitor, single point]
O=C(C1CCN(S(=O)(=O)c2ccc(F)cc2)CC1)N1CCOCC1 | inactive
CN1N=C(C(C)(C)C)CSC1=Nc1ccccc1 | inconclusive: 2.51 µM [inhibitor, partial curve, poor fit]
COC(=O)c1cc2ccccc2c(-c2c(OC)c(C(=O)OC)cc3ccccc23)c1OC | inconclusive: 16.4 µM [inhibitor, partial curve, poor fit]
COCCOc1cc(N2C(=O)CSCC2=O)c(Cl)cc1Cl | inconclusive: 6.51 µM [activator, single point]
C=CCN(c1ccccc1)S(=O)(=O)c1cccc(C(=O)N2CC(C)CC(C)C2)c1 (stereo unspecified) | inconclusive: 10 µM [inhibitor, partial curve, poor fit]
CC(=O)NC(Cc1cccc(F)c1)C(=O)NC1CCN(C(=O)Nc2ccc(C)cc2)CC1 (stereo unspecified) | inconclusive: 35.5 µM [activator, partial curve, poor fit]
COc1ccc(N2CCN(CCCNC(=O)CCC(=O)N3CCOc4ccc(Cl)cc43)CC2)cc1 | inactive
C=CCn1c(NCc2cc(Cl)ccc2O)nc2ccccc21 | inconclusive: 22.4 µM [inhibitor, single point]

SMILES | Potency
C=CCn1c(SCC(=O)Nc2ccc3c(c2)OCO3)nc2ccccc2c1=O | inactive
Cc1ccsc1C(=O)C1CCCN(Cc2cnc(N3CCOCC3)s2)C1 (stereo unspecified) | inconclusive: 35.5 µM [inhibitor, single point]
Cc1ccc(/C=N/NC(=O)Cc2c[nH]c3ccccc23)c(C)c1 | inconclusive: 22.4 µM [inhibitor, partial curve, poor fit]
CCOC(=O)C1=C(C)NC(=O)NC1c1ccc(NC(C)=O)cc1 (stereo unspecified) | inconclusive: 16.4 µM [activator, partial curve, poor fit]
O=C(CSc1nc2cccnc2n1Cc1ccccc1)NC1CCCCC1 | inactive
N#C/C(=C/c1cn[nH]c1-c1ccc(Br)cc1)C(=O)O | inconclusive: 5.01 µM [activator, partial curve, poor fit]
COc1cccc(-n2c(=O)c3sccc3n(Cc3cc(=O)n4cc(Cl)ccc4n3)c2=O)c1 | inactive
Cc1ccc(NS(=O)(=O)c2ccc(C(=O)NCC(c3ccco3)N3CCCCC3)cc2)cc1 (stereo unspecified) | inconclusive: 14.1 µM [inhibitor, partial curve]
COc1ccc(NC(=O)CCOc2ccccc2F)cc1S(=O)(=O)N1CCCCC1 | inconclusive: 10 µM [inhibitor, partial curve]
O=C(CCN1C(=O)S/C(=C\c2ccccc2)C1=O)N1CCCCC1 | inactive
O=C(O)c1cccc(CSc2nc(-c3ccccc3)cc(C(F)(F)F)n2)c1 | inconclusive: 35.5 µM [inhibitor, single point]
N#Cc1ccsc1NC(=O)CSc1nnc(-c2ccccc2)o1 | inactive
CC(=O)Nc1ccc(N2CCc3c(C)c(C#N)c4nc5ccccc5n4c32)cc1 | inconclusive: 0.82 µM [inhibitor, full curve, poor fit]
NC(=O)c1ccsc1NC(=O)c1ccc(S(=O)(=O)N2CCCc3ccccc32)cc1 | inconclusive: 25.9 µM [inhibitor, partial curve, poor fit]
COC(=O)c1c(C)oc2cc(Br)c(OCC(=O)C(C)(C)C)cc12 | inconclusive: 10.3 µM [inhibitor, single point]
CC(C)Oc1ccc(CNS(=O)(=O)c2csc(C(N)=O)c2)cc1 | inactive
COc1cc(CN(CC(C)C)S(=O)(=O)c2ccccc2Br)cc(OC)c1 | inconclusive: 7.91 µM [activator, partial curve, poor fit]
C=C1C(=O)OC2CC3(C)OC3CCC(C)=CC(OC(C)=O)C12 (stereo unspecified) | inconclusive: 10 µM [inhibitor, single point]
Cc1cccc(C(=O)OCc2cc(=O)n3nc(C4CC4)sc3n2)c1 | inactive
Cc1ccc(-c2nc(C(=O)Nc3cccc(C#N)c3)c3n2CCCCC3)cc1 | inactive

Ordered by molecular weight (low to high): part of the list above.
SMILES | Potency
C=CCn1c(NCc2cc(Cl)ccc2O)nc2ccccc21 | inconclusive: 22.4 µM [inhibitor, single point]
CCOC(=O)C1=C(C)NC(=O)NC1c1ccc(NC(C)=O)cc1 (stereo unspecified) | inconclusive: 16.4 µM [activator, partial curve, poor fit]
NC(=O)c1ccsc1NC(=O)c1ccc(S(=O)(=O)N2CCCc3ccccc32)cc1 | inconclusive: 25.9 µM [inhibitor, partial curve, poor fit]
